Nine compounds from the supplement of paper PMC12889115 can be followed below.

Molecules are shown by their SMILES. The list shows a part of the results. These are raw signals, not scaled to a control.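 In the initial screen, polymyxin B was used at a concentration that permeabilizes Salmonella's outer membrane but not its inner membrane. Maximum growth was set by DMSO wells with or without polymyxin B. Since plates varied, data were ranked per plate, and compounds giving the lowest OD600 advanced as hits.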

The assay relates to Salmonella enterica serovar Typhimurium SL1344. The assay can be described thus: bacterial growth OD600 after 18 h with compound and polymyxin B; higher = more bacterial growth (less inhibition). Particulars: 50 µM, Mueller-Hinton broth.

On to `CC(C)CCNC(=O)c1cn(CC(C)C)cc(C(=O)N2CCCCC2c2cccnc2)c1=O` (centres undefined), for which the “bacterial growth OD600” value (polymyxin B 0.75 µg/mL) came to 0.907.

Turning to `COc1ccc2ccccc2c1CN1CCCC(CO)(Cc2ccc(F)cc2)C1` (centres undefined), under “polymyxin B 1 µg/mL”, the “bacterial growth OD600” value worked out at 0.031.

For the compound `O=C(c1ccc2oc(-c3cccc(F)c3)nc2c1)N1CCOc2ccccc2C1`, where the note is “polymyxin B 1 µg/mL”, the “bacterial growth OD600” value amounted to 1.14.

Consider `COc1ccc(-c2ccccc2NC(=O)C2CCCN(Cc3c[nH]c(C)n3)C2)cc1` (centres undefined), for which the “bacterial growth OD600” value (polymyxin B 0.75 µg/mL) is 0.836.

Regarding `CCOC(=O)N1CCN(Cc2ccc3c(c2)CN(C(=O)C#Cc2ccccc2)CCO3)CC1`, the “bacterial growth OD600” value (polymyxin B 0.75 µg/mL) was 0.734.

`FC(F)(F)c1cccc(N2CCN(C3CCCN(C4CCC4)C3)CC2)c1` (centres undefined): the “bacterial growth OD600” value (polymyxin B 1 µg/mL) was determined as 0.923.

Take `COc1cc(C)ccc1OCc1nc(C(=O)NCc2cccc(C)n2)co1`: where the note is “polymyxin B 1 µg/mL”, the “bacterial growth OD600” value worked out at 0.966.

`CCOc1ccccc1-c1nc(CN2CCCCC2c2cccc(OC)c2)c(C)o1` (centres undefined): the “bacterial growth OD600” value (polymyxin B 1 µg/mL) came out at 0.222.

In the case of `COc1cccc(CC(=O)N2CCC3(CC2)c2ccccc2[C@@H](NC(=O)c2ccncc2)[C@@H]3OC)c1`, the “bacterial growth OD600” value (polymyxin B 0.75 µg/mL) amounted to 1.02.
